Measured values published in PMC6963406.
Residue numbers refer to the chain shown, from its start. No constants are given. Whether binding was seen depends on the method and setting. Binding seen in cells or lysates may run through a third protein. Some results given as binding are weak or reduced against the parent protein; the word gives no strength. Where a sequence is shown, tags or fusion partners need not be part of it.

Columns and labels:
[1] = target: T1, LEAFY (LFY), wild type, C-terminal GFP or RFP fusion (Arabidopsis thaliana) (UniProt Q00958); experiment: FRET or BRET; in vivo FRET-FLIM; C-terminal GFP fusions (donors) and C-terminal RFP fusions (acceptors) transiently co-expressed in N. benthamiana epidermal leaf cells; GFP fluorescence lifetime measured in the nuclei; donor-only samples as reference
T1 sequence: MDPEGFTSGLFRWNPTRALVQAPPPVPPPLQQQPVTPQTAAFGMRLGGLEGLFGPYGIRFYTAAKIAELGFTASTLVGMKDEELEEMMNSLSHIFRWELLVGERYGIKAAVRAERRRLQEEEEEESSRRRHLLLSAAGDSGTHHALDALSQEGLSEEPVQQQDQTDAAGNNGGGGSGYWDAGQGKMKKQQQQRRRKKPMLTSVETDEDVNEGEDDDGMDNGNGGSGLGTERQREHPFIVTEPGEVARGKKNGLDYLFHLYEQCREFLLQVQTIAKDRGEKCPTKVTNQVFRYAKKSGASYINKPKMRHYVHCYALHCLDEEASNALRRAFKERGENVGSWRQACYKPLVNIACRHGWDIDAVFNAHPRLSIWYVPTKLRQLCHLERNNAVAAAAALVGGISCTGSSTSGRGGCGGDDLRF

[2] = target: T2, LFY^FIF (LEAFY with the Cys263-to-Tyr exchange of the fif allele), C-terminal GFP or RFP fusion (Arabidopsis thaliana) (UniProt Q00958); experiment: as above
T2 sequence: T1 sequence with C263Y

B1: LEAFY (LFY), wild type, C-terminal GFP or RFP fusion (protein, UniProt Q00958 1-420)
chain: T1 sequence
- binding [1]: binds
- binding [2]: binds

B2: LFY^FIF (LEAFY with the Cys263-to-Tyr exchange of the fif allele), C-terminal GFP or RFP fusion (protein, UniProt Q00958 1-420)
chain: T1 sequence with C263Y
- binding [1]: binds
- binding [2]: binds
